The other results are listed elsewhere or left out. Shown are side measurements of this screen, not its main read-out; they come without a call. The list favours compounds with an active or inconclusive main result. Words in brackets tell the shape of the fitted curve; partial curves, single points and poor fits give uncertain potencies.
Test: qHTS Assay to Find Inhibitors of Chronic Active B-Cell Receptor Signaling
Details: ABC-DLBCL IkBa-CBG/CBR reporter, luminescence ratio (green luciferase fused to IkBa over red control in TMD8 lymphoma cells), 4 h
Method in brief: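 Compounds up to 46 uM were incubated four hours with TMD8 cells whose green CBG68 luciferase is fused to IkappaBalpha; red CBR luminescence normalised the signal, and concentration-effect curves were fitted to fusion, red and ratio data.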

[1] = measured here: CBR red luminescence, cell number
[2] = measured here: IkBa-CBG green luminescence

| Compound | AC50 [1] | AC50 [2] |
| --- | --- | --- |
| Cc1c(-c2ccncc2)oc2ccc(Br)cc2c1=O | 10 µM [rising, partial curve, poor fit] | – |
| Oc1ccc(-c2nccc(-c3ccc(Cl)cc3)n2)cc1 | 14.1 µM [rising, partial curve, poor fit] | – |
| Cc1cc2ccccn2c1C(=O)c1ccc([N+](=O)[O-])o1 | 15.8 µM [falling, single point] | – |
| COc1cccc(-c2nc(C(N)=O)c3[nH]c(=O)n(-c4cccc(Cl)c4)c3n2)c1OC | 9.2 µM [falling, partial curve, poor fit] | – |
| Cc1cc(Cl)c(S(=O)(=O)N2CCCCCC2)cc1OCC(N)=O | 23.1 µM [falling, single point] | – |
| Cc1cc(C(=O)N/N=C/c2ccc(N(C)C)cc2)c2ccccc2n1 | 0.398 µM [falling, full curve, poor fit] | 31.6 µM [falling, partial curve, poor fit] |
| CCN(CC)S(=O)(=O)c1ccc(N2CCOCC2)c(NS(=O)(=O)c2cc(C(C)(C)C)ccc2C)c1 | 2.31 µM [rising, partial curve, poor fit] | – |
| Cn1c(N)c(C(=O)COC(=O)/C=C/c2ccccc2F)c(=O)n(C)c1=O | 8.2 µM [rising, partial curve] | – |
| O=C(CSc1nnc2scc(-c3ccccc3)n12)N1CCN(Cc2ccccc2)CC1 | 0.731 µM [falling, partial curve, poor fit] | – |
| CCCCNC(=S)Nc1ccc2nc(N3CCN(CC)CC3)cc(C)c2c1 | 35.5 µM [falling, single point] | – |
| Cc1[nH]c2ccc(F)cc2c1CCN(Cc1cccnc1)C(=S)Nc1ccc(F)cc1 | 14.1 µM [falling, single point] | – |
| CCOc1ccc(NC(=O)Nc2cccc(C(=O)O)c2)cc1 | 2 µM [falling, full curve] | – |
| O=C1C2C3c4ccccc4C(c4ccccc43)C2c2nc3ccccc3n21 (configuration not stated) | 0.731 µM [falling, partial curve, poor fit] | – |
| Cc1cccc(N2CCN(C(=O)C(C)C)CC2)c1C | 4.11 µM [falling, single point] | – |
| S=C(NCc1ccccn1)Nc1ccc(Cl)c(Cl)c1 | 35.5 µM [falling, single point] | 35.5 µM [falling, single point] |
| CC(=O)N1CCc2cc(C(=O)CN3CCCN(Cc4ccc(F)cc4)C3)ccc21 | 18.4 µM [rising, single point] | – |
| CN(C)c1ccc(C(=O)Nc2nnc(C3=COCCO3)o2)cc1 | 35.5 µM [falling, single point] | – |
| Cc1nc(Nc2ccc3c(c2)OCCO3)c2oc3ccccc3c2n1 | 0.794 µM [falling, full curve, poor fit] | – |
| CC/C(=N/N=C(\CC)c1ccccc1)c1ccccc1 | 29.1 µM [rising, single point] | – |
| O=C(NCCCc1ccccc1)c1cccc([N+](=O)[O-])c1 | 6.51 µM [rising, single point] | – |
| S=C(Nc1ccccc1)Nc1ccc(Br)cn1 | 22.4 µM [rising, partial curve, poor fit] | – |

A draw from above in order of count of non-hydrogen atoms, smallest number first:

| Compound | AC50 [1] | AC50 [2] |
| --- | --- | --- |
| CN(C)c1ccc(C(=O)Nc2nnc(C3=COCCO3)o2)cc1 | 35.5 µM [falling, single point] | – |
| Cc1cc(C(=O)N/N=C/c2ccc(N(C)C)cc2)c2ccccc2n1 | 0.398 µM [falling, full curve, poor fit] | 31.6 µM [falling, partial curve, poor fit] |
| COc1cccc(-c2nc(C(N)=O)c3[nH]c(=O)n(-c4cccc(Cl)c4)c3n2)c1OC | 9.2 µM [falling, partial curve, poor fit] | – |

(cont.)

| Compound | AC50 [1] | AC50 [2] |
| --- | --- | --- |
| COc1ccc(C2=Nn3c(nnc3-c3ccncc3)SC2)cc1OC | 25.9 µM [falling, single point] | – |
| COc1cccc2c1OCC1COc3c(c(=O)n(C)c(=O)n3C)C21 (configuration not stated) | 3.66 µM [falling, single point] | – |
| CCn1c2ccccc2c2cc(NC(=O)C(=O)N3CCOCC3)ccc21 | 11.2 µM [rising, partial curve, poor fit] | – |
| O=C(Nc1ccccc1)Nc1ccccc1C(=O)NCC1CC1 | 1.41 µM [falling, full curve] | – |
| CCc1ccc(NC(=O)CSC2=Nc3ccccc3C3=NC(CC(=O)NCc4cccs4)C(=O)N23)cc1 (configuration not stated) | 15.8 µM [falling, single point] | – |
| CCOC(=O)c1sc(NC(=S)NC(=O)c2ccc(OC)cc2)nc1C | 0.794 µM [falling, full curve] | – |
| COc1ccc2[nH]c(=O)c(C(c3nnnn3C3CCCC3)N3CCN(Cc4ccc5c(c4)OCO5)CC3)cc2c1 (configuration not stated) | 10.3 µM [rising, partial curve, poor fit] | – |
| CCCC1=C(C(=O)OCC)C(c2ccccc2OC)NC(=O)N1 (configuration not stated) | 6.31 µM [rising, single point] | – |
| CCOC(=O)[C@H]1[C@H]2COc3ccccc3[C@@H]2N2C(=O)c3cc(OC)ccc3NC(=O)[C@@]12C | 10.3 µM [falling, partial curve] | 13 µM [rising, partial curve, poor fit] |
| Cc1ccc(S(=O)(=O)N2CCC(C(=O)Nc3ccccc3N3CCCC3)CC2)cc1 | 23.1 µM [rising, single point] | – |
| C=CCNC(=S)NNC(=O)COc1ccc(Cl)cc1Cl | 20.6 µM [rising, single point] | 20.6 µM [falling, single point] |
| COC(=O)c1cn(-c2ccccc2)nc1-c1ccncc1 | 10 µM [falling, single point] | – |
| Oc1c(/C=C/C=C/C=Nc2ccccc2)sc(=S)n1Cc1ccccc1 | 25.1 µM [falling, single point] | – |
| O=C(CSc1nccn1-c1ccccc1)c1ccc(Br)cc1 | 2.82 µM [rising, full curve, poor fit] | – |
| CCOc1ccc(-c2nnn(CC(=O)N3CCN(c4ccc(F)cc4)CC3)n2)cc1OCC | 4.11 µM [falling, single point] | – |
| CCOc1cccc(C(=O)NC(=S)Nc2ccccc2)c1 | 5.8 µM [rising, partial curve, poor fit] | – |
| COc1cccc(CNC(=O)C2CCN(S(=O)(=O)c3cnc[nH]3)CC2)c1 | 2.59 µM [rising, partial curve] | – |
| Cc1c(C(=O)Oc2ccc(Br)cc2)sc2ncn(Cc3ccccc3F)c(=O)c12 | 1.12 µM [rising, full curve, poor fit] | – |
| CC(C)c1ccc(NC2CCCN(C(=O)c3ccncc3)C2)cc1 (configuration not stated) | 2 µM [falling, full curve] | – |
| COCCOC(=O)c1c(C)n(C)c2ccc(OC(=O)c3ccco3)cc12 | 23.1 µM [falling, single point] | – |
| COc1ccc(-c2nc3ccccc3c(=O)n2-c2c(C)n(C)n(-c3ccccc3)c2=O)cc1 | 35.5 µM [rising, single point] | – |

Single records, from the list above. Order of values: AC50 [1] | AC50 [2]
S=C(Nc1ccccc1)Nc1ccc(Br)cn1 is entered as 22.4 µM [rising, partial curve, poor fit] | –
Cc1cc2ccccn2c1C(=O)c1ccc([N+](=O)[O-])o1 is entered as 15.8 µM [falling, single point] | –
Oc1c(/C=C/C=C/C=Nc2ccccc2)sc(=S)n1Cc1ccccc1 is entered as 25.1 µM [falling, single point] | –
Cc1cccc(N2CCN(C(=O)C(C)C)CC2)c1C is entered as 4.11 µM [falling, single point] | –

The list goes on:

| Compound | AC50 [1] | AC50 [2] |
| --- | --- | --- |
| CCc1ccc[n+](-c2[nH]c(=O)sc2/C=N/N=C(\N)[O-])c1 | 35.5 µM [rising, single point] | – |
| O=C(Nc1ccc2c(c1)OCO2)C1CCCCC1 | 12.6 µM [falling, single point] | – |
| COc1ccc(-c2nnc(CSc3nc4ccccc4c(=O)n3CC(C)C)o2)cc1OC | 25.9 µM [falling, single point] | – |
| O=C(N/N=C/c1cccc(OCc2ccccc2)c1)c1cccs1 | 2 µM [falling, partial curve, poor fit] | – |
| CC(C)Oc1ccccc1/C=N/Nc1ccccc1[N+](=O)[O-] | 2.31 µM [rising, full curve] | – |
| CC(C)NC(=O)N(C)C[C@@H]1Oc2ccc(NC(=O)CCN3CCOCC3)cc2CC(=O)N([C@@H](C)CO)C[C@@H]1C | 29.1 µM [rising, single point] | – |
| Cc1ccc(C)c(NS(=O)(=O)c2cc(C(=O)NCCC3=CCCCC3)ccc2C)c1 | 25.9 µM [falling, single point] | – |
| CC(=O)c1ccc(NC(=O)CO/N=C(\C)c2cccs2)cc1 | 18.4 µM [rising, partial curve] | – |
| O=C(CSc1nc2ccccc2s1)c1ccc(O)cc1O | 5.62 µM [falling, partial curve, poor fit] | – |
| Nc1ccc(-c2ccc(C(=O)O)s2)cn1 | 3.55 µM [falling, full curve] | – |
| COc1cccc(N2CCN(C(=O)C3CCC(=O)N(C4CCCCCC4)C3)CC2)c1 (configuration not stated) | 22.4 µM [falling, single point] | – |
| COC(=O)c1cc(Cl)c(NC(=O)/C=C/c2ccc(Cl)cc2)cc1OC | 0.13 µM [rising, full curve, poor fit] | – |
| Cc1ccc(C)c(C(C)NC(=O)c2ccc(Br)o2)c1 (configuration not stated) | 12.6 µM [rising, single point] | – |
| O=C(Nc1ccc(C2=NCCN2)cc1)c1ccc(C(=O)Nc2ccc(C3=NCCN3)cc2)c(Cl)c1 | 15.8 µM [rising, single point] | – |
| CN(CC(=O)Nc1ccc(F)cc1[N+](=O)[O-])Cc1ccccc1 | 5.01 µM [rising, full curve] | – |
| C=CC[C@@H](Cc1ccc(F)cc1)C(=O)OC[C@H]1CCCN1C(=O)[C@@H](CC=C)CC(=O)N[C@@H](CO)Cc1ccccc1 | 32.6 µM [falling, single point] | – |
| CCCC(=O)N1CCN(c2nnc(-c3ccc(C)cc3)c3ccccc23)CC1 | 35.5 µM [falling, partial curve, poor fit] | – |
| O=C1CSC(c2cccc(F)c2)N1c1ccccc1F (configuration not stated) | 3.66 µM [falling, single point] | – |
| CCOC(=O)C1CCN(C(=S)Nc2cc(OC)c(OC)cc2C(=O)OC)CC1 | 0.00411 µM [rising, full curve, poor fit] | – |
| CS(=O)(=O)c1ccc2nc(NC(=O)c3cccc(NS(=O)(=O)c4ccc(F)c(F)c4)c3)sc2c1 | 29.1 µM [falling, single point] | 23.1 µM [rising, partial curve, poor fit] |

From PubChem BioAssay AID493014 (National Center for Advancing Translational Sciences (NCATS), 2011)
